Laboratory results from patent US20210069248A1.
No constants are given. Whether binding was seen depends on the method and setting. Some results given as binding are weak or reduced against the parent protein; the word gives no strength.

Chains of the proteins cited; added tags and fusions are not shown. Lines headed by an entry give the natural chain unless they say otherwise; changes in a name come on top.
UniProt Q13261: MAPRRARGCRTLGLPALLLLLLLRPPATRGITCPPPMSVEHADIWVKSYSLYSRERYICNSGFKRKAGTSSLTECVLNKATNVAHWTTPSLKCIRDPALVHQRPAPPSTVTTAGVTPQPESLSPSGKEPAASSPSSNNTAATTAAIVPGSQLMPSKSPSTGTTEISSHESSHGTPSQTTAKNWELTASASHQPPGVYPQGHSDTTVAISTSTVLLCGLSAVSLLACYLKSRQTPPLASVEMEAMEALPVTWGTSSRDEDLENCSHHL

What was measured:
[1] = target: IL15-292 (constitutive membrane-bound IL15, mbIL15) (human); assay: flow cytometry of transduced cord blood NK cells stained with IL15Ra-Fc and anti-CD56 antibody
[2] = target: IL15-292 (constitutive membrane-bound IL15, mbIL15) (human); assay: flow cytometry of transduced TIL, co-staining with anti-IL15 antibody and IL15Ra-Fc (IL15+IL15Ra-Fc+ double positive population)
[3] = target: IL15-293 (ACZ-regulated membrane-bound IL15 linked to CA2 (M1del, L156H) DRD) (human); assay: flow cytometry of transduced TIL after 10 µM ACZ for 24 hrs, co-staining with anti-IL15 antibody and IL15Ra-Fc (17.1% with low MFI in DMSO)
[4] = target: IL15-293 (ACZ-regulated membrane-bound IL15 linked to CA2 (M1del, L156H) DRD) (human); assay: flow cytometry of transduced cord blood NK cells after 10 µM ACZ overnight, stained with IL15Ra-Fc and anti-CD56 antibody (10% or less in DMSO)
[5] = target: IL15-292 (constitutive membrane-bound IL15, mbIL15) (human); assay: flow cytometry of transduced human T cells from NSG mouse blood on day 25, stained with IL15Ra-Fc and fluorochrome conjugated anti-human IgG antibody
[6] = target: IL15-294 (constitutive membrane-bound IL15, variant intracellular tail) (human); assay: as above
[7] = target: IL15-293 (ACZ-regulated membrane-bound IL15 linked to CA2 (M1del, L156H) DRD) (human); assay: flow cytometry of transduced human T cells from blood of ACZ-treated NSG mice on day 25, stained with IL15Ra-Fc and fluorochrome conjugated anti-human IgG antibody
[8] = target: IL15-295 (ACZ-regulated membrane-bound IL15, variant intracellular tail, linked to CA2 (M1del, L156H) DRD) (human); assay: as above

Measured: binding

recombinant protein comprised of extracellular domain of IL15Ra fused to human IgG1 Fc domain (IL15Ra-Fc) (from UniProt Q13261 31-205) (Fc fusion)
binds: all assays above
